Experimental data reported in publication PMC11229372, “New Drosophila promoter-associated architectural protein Mzfp1 interacts with CP190 and is required for housekeeping gene expression and insulator activity”.
These are yes or no findings as the source states them, for the method shown. For some assays here: In cells and extracts the contact can be indirect. Some entries that bind do so weakly or less than the wild type. Where a sequence is shown, tags or fusion partners need not be part of it.

B1: Madf and Zinc-Finger Protein 1 (Mzfp1), fused to the GAL4 activation domain (protein, UniProt Q1LZ24 1-586)
chain: MELCGNVMTNSKYEMFRLKCLYCSIESELKDWELFIVHVKSAHYCEDEDVRINEIKEDTEELYSVVDAADPAIAYGPDEFFEVIENSNGVDQWMEADSKDIQYEEDATAWSAATNNSWEFGPGGSSLELPAGKEVTQMDESSQNHIPLNTDDDDVDCSDFFMSEDDLAPPRKPGRPPRRTRPGQVFKFKVSFIRSNPRVLHLIQAYKEHPCLWNPSDEHYQDEPARSMAYEAIMERMDRKANVLFTVEELKKTLEQLHVQYTLALETKQRGKLVGLAARYFAKCEFLSVAPVVTPRENEEDNDLTAIKLNFKEENLITTSFIETYANYPVLYNQALPDFGSIEIRADAFKRMAKEFQPVVKANETDVYIAVNKLRRWLYDAIRRLKSKELIQKCSKQEVQYLQMCSFLPAKGSESQVLYCDYCDKRFHGDYNLRVHIVKAHEVGDLPYLCSFCPRRFDRHVDMDRHKLRSHFERKLKCQYCEKSFAVDTDLKVHTLIHTGERPHVCDICGKTFRLKLLLDHHVNGVHLNIRPYSCNMCTKTFRKKFELANHIKGHLNIRDKKCEYCDATFYDHSSLSRHRRSHRSE
B2: Mzfp1(Δ161–194) fused to the GAL4 activation domain (protein, UniProt Q1LZ24)
chain: MELCGNVMTNSKYEMFRLKCLYCSIESELKDWELFIVHVKSAHYCEDEDVRINEIKEDTEELYSVVDAADPAIAYGPDEFFEVIENSNGVDQWMEADSKDIQYEEDATAWSAATNNSWEFGPGGSSLELPAGKEVTQMDESSQNHIPLNTDDDDVDCSDFSNPRVLHLIQAYKEHPCLWNPSDEHYQDEPARSMAYEAIMERMDRKANVLFTVEELKKTLEQLHVQYTLALETKQRGKLVGLAARYFAKCEFLSVAPVVTPRENEEDNDLTAIKLNFKEENLITTSFIETYANYPVLYNQALPDFGSIEIRADAFKRMAKEFQPVVKANETDVYIAVNKLRRWLYDAIRRLKSKELIQKCSKQEVQYLQMCSFLPAKGSESQVLYCDYCDKRFHGDYNLRVHIVKAHEVGDLPYLCSFCPRRFDRHVDMDRHKLRSHFERKLKCQYCEKSFAVDTDLKVHTLIHTGERPHVCDICGKTFRLKLLLDHHVNGVHLNIRPYSCNMCTKTFRKKFELANHIKGHLNIRDKKCEYCDATFYDHSSLSRHRRSHRSE
B3: Mzfp1(1–200) fused to the GAL4 activation domain (domain or fragment, UniProt Q1LZ24 1-200)
chain: MELCGNVMTNSKYEMFRLKCLYCSIESELKDWELFIVHVKSAHYCEDEDVRINEIKEDTEELYSVVDAADPAIAYGPDEFFEVIENSNGVDQWMEADSKDIQYEEDATAWSAATNNSWEFGPGGSSLELPAGKEVTQMDESSQNHIPLNTDDDDVDCSDFFMSEDDLAPPRKPGRPPRRTRPGQVFKFKVSFIRSNPRVL
B4: 3×HA-tagged Mzfp1 (wild-type) (protein, UniProt Q1LZ24 1-586)
chain: B1 chain
B5: 3×HA-tagged Mzfp1(Δ152-194) (protein, UniProt Q1LZ24)
chain: MELCGNVMTNSKYEMFRLKCLYCSIESELKDWELFIVHVKSAHYCEDEDVRINEIKEDTEELYSVVDAADPAIAYGPDEFFEVIENSNGVDQWMEADSKDIQYEEDATAWSAATNNSWEFGPGGSSLELPAGKEVTQMDESSQNHIPLNTDSNPRVLHLIQAYKEHPCLWNPSDEHYQDEPARSMAYEAIMERMDRKANVLFTVEELKKTLEQLHVQYTLALETKQRGKLVGLAARYFAKCEFLSVAPVVTPRENEEDNDLTAIKLNFKEENLITTSFIETYANYPVLYNQALPDFGSIEIRADAFKRMAKEFQPVVKANETDVYIAVNKLRRWLYDAIRRLKSKELIQKCSKQEVQYLQMCSFLPAKGSESQVLYCDYCDKRFHGDYNLRVHIVKAHEVGDLPYLCSFCPRRFDRHVDMDRHKLRSHFERKLKCQYCEKSFAVDTDLKVHTLIHTGERPHVCDICGKTFRLKLLLDHHVNGVHLNIRPYSCNMCTKTFRKKFELANHIKGHLNIRDKKCEYCDATFYDHSSLSRHRRSHRSE

Experiments:
[1] = biological target: T1, CP190 fused to the GAL4 DNA-binding domain (Drosophila) (UniProt Q24478); test: two-hybrid; yeast two-hybrid of Mzfp1 with CP190, Z4 and Chrom; data not shown
T1 sequence: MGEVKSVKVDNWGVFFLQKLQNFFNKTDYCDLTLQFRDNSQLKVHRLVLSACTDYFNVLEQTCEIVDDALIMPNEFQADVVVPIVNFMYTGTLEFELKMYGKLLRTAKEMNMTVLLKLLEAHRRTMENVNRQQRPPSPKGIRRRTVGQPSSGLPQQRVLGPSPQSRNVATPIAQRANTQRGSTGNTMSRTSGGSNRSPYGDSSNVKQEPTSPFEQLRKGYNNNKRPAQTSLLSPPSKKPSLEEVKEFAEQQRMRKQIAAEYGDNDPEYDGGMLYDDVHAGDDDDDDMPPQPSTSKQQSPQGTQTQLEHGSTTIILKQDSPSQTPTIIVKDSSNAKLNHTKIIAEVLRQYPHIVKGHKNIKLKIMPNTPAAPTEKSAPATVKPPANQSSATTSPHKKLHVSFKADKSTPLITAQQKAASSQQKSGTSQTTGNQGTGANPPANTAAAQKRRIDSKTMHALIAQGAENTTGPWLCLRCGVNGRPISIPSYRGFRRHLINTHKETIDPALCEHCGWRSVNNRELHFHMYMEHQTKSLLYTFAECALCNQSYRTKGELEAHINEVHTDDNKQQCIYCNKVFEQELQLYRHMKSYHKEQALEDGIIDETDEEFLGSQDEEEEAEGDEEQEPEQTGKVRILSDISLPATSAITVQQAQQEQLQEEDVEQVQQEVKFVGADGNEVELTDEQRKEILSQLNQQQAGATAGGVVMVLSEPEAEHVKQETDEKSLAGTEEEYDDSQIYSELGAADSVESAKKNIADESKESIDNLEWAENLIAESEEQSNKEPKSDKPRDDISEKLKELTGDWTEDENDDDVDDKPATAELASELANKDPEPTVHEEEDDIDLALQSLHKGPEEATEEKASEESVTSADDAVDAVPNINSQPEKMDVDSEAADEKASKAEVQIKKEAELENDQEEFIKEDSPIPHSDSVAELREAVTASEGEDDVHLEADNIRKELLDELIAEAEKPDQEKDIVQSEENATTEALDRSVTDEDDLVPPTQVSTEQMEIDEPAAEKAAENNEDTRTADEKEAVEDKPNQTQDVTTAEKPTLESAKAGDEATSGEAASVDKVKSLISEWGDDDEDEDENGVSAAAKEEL

[2] = biological target: T1, CP190 fused to the GAL4 DNA-binding domain (Drosophila); test: two-hybrid; Mzfp1 variants fused to GAL4 activation domain (pGAD424), CP190 and its fragments fused to GAL4 DNA-binding domain (pGBT9); S. cerevisiae PJ69-4A; growth on medium lacking tryptophan, leucine, histidine and adenine at 30 C, assessed after 3 days
[3] = biological target: T2, CP190 (expressed in S2 cells) (Drosophila) (UniProt Q24478); test: co-IP; S2 cells co-transfected with 3xHA-Mzfp1 and CP190 plasmids; extract precipitated with anti-CP190 on Protein G magnetic beads (IgG as control), overnight 4 C, washes with 150 and 300 mM NaCl; Western blot for HA
T2 sequence: T1 sequence

Row | Binder | binding [2] | binding [3] | further results
1 | B1 |  |  | binding [1]: binds
2 | B2 | binds |  | 
3 | B3 | binds |  | 
4 | B4 |  | binds | 
5 | B5 |  | binds weakly | 
